Counter-ions that a name gives are not always drawn. Some of the results follow. Most values come without repeats; read them as rough.
Columns and labels:
Saos-2 = experiment: cell viability (CCK-8) relative to DMSO control (% of control); higher = less cytotoxic; conditions: 10 µM; 48 h
U2OS = experiment: as above; conditions: 10 µM; 48 h

SMILES	cell viability (Saos-2)	cell viability (U2OS)
NNC(=O)c1ccncc1 [Isoniazid]	65.5	99.5
CCCSc1ccc2[nH]c(NC(=O)OC)nc2c1 [Albendazole]	28.9	74.9
CCCc1nn(C)c2c(=O)[nH]c(-c3cc(S(=O)(=O)N4CCN(C)CC4)ccc3OCC)nc12 [Sildenafil Citrate]	58.6	103
CN1CCN(C2=Nc3ccccc3Oc3ccc(Cl)cc32)CC1 [Loxapine succinate]	113	117
COC(c1ccccc1)(c1ccccc1)[C@H](Oc1nc(C)cc(C)n1)C(=O)O [Ambrisentan]	113	95
C=CC[C@@H]1/C=C(\C)C[C@H](C)C[C@H](OC)[C@H]2O[C@@](O)(C(=O)C(=O)N3CCCC[C@H]3C(=O)O[C@H](/C(C)=C/[C@@H]3CC[C@@H](O)[C@H](OC)C3)[C@H](C)[C@@H](O)CC1=O)[C@H](C)C[C@@H]2OC [Tacrolimus (Fk506)]	94.4	111
CC[C@H](C)[C@H](N)C1=N[C@H](C(=O)N[C@@H](CC(C)C)C(=O)N[C@H](CCC(=O)O)C(=O)N[C@H](C(=O)N[C@H]2CCCCNC(=O)[C@H](CC(N)=O)NC(=O)[C@@H](CC(=O)O)NC(=O)[C@H](Cc3cnc[nH]3)NC(=O)[C@@H](Cc3ccccc3)NC(=O)[C@H]([C@@H](C)CC)NC(=O)[C@@H](CCCN)NC2=O)[C@@H](C)CC)CS1 [Bacitracin]	119	114
CCCCCCCCCCCCCCCC(=O)O[C@@H]1[C@@H](O)[C@@H](O)[C@@H]([C@H](NC(=O)[C@@H]2C[C@@H](CCC)CN2C)[C@H](C)Cl)O[C@@H]1SC [Clindamycin Palmitate·HCl]	60.5	104
CCOc1cc(CC(=O)N[C@@H](CC(C)C)c2ccccc2N2CCCCC2)ccc1C(=O)O [Repaglinide]	108	91.1
C[C@@](Cc1ccc(O)c(O)c1)(NN)C(=O)O [S(-)-Carbidopa . monohydrate]	55.8	115
CC1CNc2c(cccc2S(=O)(=O)N[C@@H](CCCNC(=N)N)C(=O)N2CC[C@@H](C)C[C@@H]2C(=O)O)C1 (stereo partly specified) [Argatroban]	71.3	96.7
COC(=O)CCc1ccc(OCC(O)CNC(C)C)cc1 (stereo unspecified) [Esmolol]	69.5	101
CN(C)c1ccc(O)c2c1C[C@H]1C[C@H]3[C@H](N(C)C)C(O)=C(C(N)=O)C(=O)[C@@]3(O)C(O)=C1C2=O [Minocycline]	70.7	97.9
Cc1cn[nH]c1 [Fomepizole]	112	104
COC(=O)C1=C(C)NC(C)=C(C(=O)OCC(C)C)C1c1ccccc1[N+](=O)[O-] (stereo unspecified) [Nisoldipine]	47.6	80.3
Clc1ccc(CO/N=C(\Cn2ccnc2)c2ccc(Cl)cc2Cl)c(Cl)c1 [Oxiconazole Nitrate]	67.5	116
Cc1cc(C(=O)NNCc2ccccc2)no1 [Isocarboxazid]	107	88.6
Clc1ccc2c(c1)C(N1CCNCC1)=Nc1ccccc1O2 [Amoxapine]	55.6	102
CN(C)CCOC(c1ccccc1)c1ccccc1 [Diphenhydramine·HCl]	62.9	105
CC(C)C[C@H](NC(=O)[C@H](Cc1ccccc1)NC(=O)c1cnccn1)B(O)O [Bortezomib]	19	12.7
CNCCC(Oc1ccc(C(F)(F)F)cc1)c1ccccc1 (stereo unspecified) [Fluoxetine·HCl]	58.4	89.5
CN[C@H]1CC[C@@H](c2ccc(Cl)c(Cl)c2)c2ccccc21 [Sertraline·HCl]	42.9	25.3
C[C@H]1COc2c(N3CCN(C)CC3)c(F)cc3c(=O)c(C(=O)O)cn1c23 [Levofloxacin . hydrochloride]	69.8	97.4
COC(=O)CCC(=O)CN [Methyl δ-aminolevulinate hydrochloride]	103	114
O=C(C1CCCCC1)N1CC(=O)N2CCc3ccccc3C2C1 (stereo unspecified) [Praziquantel]	64.4	102
Oc1c(Cl)cc(Cl)c(Cl)c1Cc1c(O)c(Cl)cc(Cl)c1Cl [Hexachlorophene]	73.3	68.5
CC12CC3CC(C)(C1)CC(N)(C3)C2 [Memantine . hydrochloride]	60.5	108
Nc1nc(NC2CC2)c2ncn([C@H]3C=C[C@@H](CO)C3)c2n1 [Abacavir Sulfate]	93.9	82.6

A portion taken from the entries so far, as a working copy:
SMILES	cell viability (Saos-2)	cell viability (U2OS)
CC(C)C[C@H](NC(=O)[C@H](Cc1ccccc1)NC(=O)c1cnccn1)B(O)O [Bortezomib]	19	12.7
CNCCC(Oc1ccc(C(F)(F)F)cc1)c1ccccc1 (stereo unspecified) [Fluoxetine·HCl]	58.4	89.5
CN[C@H]1CC[C@@H](c2ccc(Cl)c(Cl)c2)c2ccccc21 [Sertraline·HCl]	42.9	25.3
C[C@H]1COc2c(N3CCN(C)CC3)c(F)cc3c(=O)c(C(=O)O)cn1c23 [Levofloxacin . hydrochloride]	69.8	97.4
COC(=O)CCC(=O)CN [Methyl δ-aminolevulinate hydrochloride]	103	114
O=C(C1CCCCC1)N1CC(=O)N2CCc3ccccc3C2C1 (stereo unspecified) [Praziquantel]	64.4	102
Oc1c(Cl)cc(Cl)c(Cl)c1Cc1c(O)c(Cl)cc(Cl)c1Cl [Hexachlorophene]	73.3	68.5
CC12CC3CC(C)(C1)CC(N)(C3)C2 [Memantine . hydrochloride]	60.5	108

Source: the supplement of paper PMC9433722
